Assay results reported in PubChem BioAssay AID1508600 (Functional Genomics Laboratory (NCATS/FGL), 2020).
Among all 53,000 sequences or so, about 3,700 (7%) were called active.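 Rule for the calls: active = gene knockdowns whose robust z-score for IL-1 alpha signal is at least 2 or at most -2, so actives lie on both sides; inactive = the rest.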 The list shows a part of the results.

Assay: Components of the Cytosolic LPS Sensing Pathway: Gene Identification via Genome-wide siRNA Screen;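 note: robust z of the log signal after scaling to non-targeting control siRNA wells of the plate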
Conditions: RAW264.7 macrophages, IL-1a HTRF, actives lie on both sides, screened at 100 nM (by protocol), cells primed 5 h with Pam3CSK4 first
Procedure, shortened: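 Supernatant IL-1a by HTRF from RAW264.7 cells primed with Pam3CSK4 (5 hours) and transfected with LipidA (24 hour) after 48h siRNA knockdown at 100 nM; cell viability checked with CellTiter-Glo.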

z-score, active:
GGAUUUUGUUCUUACAGUUTT against Nfia 2.8
GGAAGUAUGUGUUUCUCAGTT against Prr9 -2.41
GGAGAGCAGUGAUAACCAGTT against Cracd 2.06
GGAACAUCAUCCACUGGAATT against Crhr1 6
GGUGGAGAUUAUUCAUGUUTT against Dpp8 2.31
GGAUAGUCAUCAACAGAGCTT against Psma7 -2.42
GGGAGUGCCUGGGUUUGUATT against Dusp28 3.19
GGAGAGUGAUGAACAGAUGTT against Pctp 2.21
GGGCGAUAUUAUGAGCAACTT against Atp1b2 3.78

z-score, inactive:
GGGCAAAAUUUUACUAAUCTT against Ppp1r9b 0.98
GCAAUAACCUGGUAGGCUCTT against Fxyd6 -0.521
CCUAAUGUAGUUGUCUCUUTT against Rbp3 0.534
GGAUGUCUGUCCUCUUAAATT against Igflr1 0.934
CCACGUCUUUGAGGUACCUTT against Lrrc52 -0.0769
GCACUGUUUGUCAAGAAUGTT against Cdc42ep4 -0.381
GGGCCUUCAAAAAACUGCCTT against Eva1b 1.75
UGAAGCUGUCCCGGACUAATT against Shf 0.731
GGCCUCUGACUUUAAAGGCTT against Taf1d 1.09
CCCUAGGUCAUAGCUUGACTT against Crtc1 1.58
GCACAAGAUGUUCACACUATT against Siva1 0.255
GGCUCAGGUGUUCAAGAUATT against Cd109 -1.66
GGAGUACUAAGUCCAUUCCTT against Tuba1b -0.18
GGGCUGUGGUUUCUAUGACTT against Tpra1 -0.0792
GCUGCACGAUCGGAAUGGUTT against Ssh1 -0.678
GGAAGAAAUGUACAAACUGTT against Spg21 1.63
GGUGACUCUGAUCAAUUUCTT against Fkbpl -1
GGAAUUCUGACGUGAAGAATT against Olfr13 -0.987
CGAGAAACCACAAUUCUCUTT against Arl11 -0.614
CGCUCAGGUCACCAAAAAGTT against Acaca -0.48
CGACAAUGAAUUCAAUGGGTT against Slc48a1 -0.342
GCCAGUGUUCGGAGAAGAUTT against Pitx1 0.759
GGCCUAGUGCCUUUAUUUGTT against Ptgfr 1.01
GGGCAGAAAACAACUGGAATT against Pappa -1.1
GGCCAACUUGAGAUUGUCUTT against Dcaf7 0.766
GGUAGUGAUCCUCAAAAAATT against Myc 1.84
GGCCUAUCAAAAUUCAGUUTT against Rbm7 1.17
GGCACCUGGAGUUUUAGAGTT against Ltb4r1 0.385
GGGUUUCCUGGAUUCUCAUTT against Arap3 -1.73
GGCUGAUCCUGUAUUCUUATT against Sertad3 0.757
CGAUAUGAUGUAUUCCAUCTT against Fktn 0.206
GGAGAGUGCUGUGAAGCCATT against Vegfb -0.943
GGAGCUGAACAAGAAAUUGTT against Polr3h 0.33
GCACUUUUGUUCACUUAAATT against Fmo1 -0.269
GGAUUCUGAGAAAUCAAGATT against Serpinb12 -0.376
GGAGAAGAAAAACCACUACTT against Cacng8 -1.92
CGCACAAGUGCUUGAGUUATT against Ccdc151 1.03
GCUGGUGUCUCAGAUCUCATT against Hbq1b -0.566
GCAUACAACUGUUCAUAGATT against Nsrp1 -0.476
CCCAUCCCUGUAAAAAUUCTT against Limd2 -1.19
GGAGGUGGUUCACUAAAAATT against Ube2dnl1 0.272
GGUACCUUCAUCUUGGUGGTT against Olfr699 -0.017
GGUGGAAUCACAAAAACGCTT against Psmg2 -1.07
GGACAUGCAAGACAUGGAUTT against Anapc15 1.46
GUCUUUCUGUUACCUUGGCTT against Adam20 -1.09
CCUAUUGAAAAGCCAAACUTT against Lypd11 -0.651
GUAACUCAGCAUUUGAUACTT against Krtap19-3 -0.475
GGGAUAAUAAAGAAGAAGUTT against Dach2 -0.251
GGACUCAAGAUUUCAGAAUTT against Btbd7 0.219
CCCUCUUUAUCAAAGCCAATT against 2310067E19Rik -0.277
GGACUUACAAAAAUUCCAGTT against Fcer2a 0.576
GGUGGAAGCAAGCUGUUCUTT against Trim39 1.14
CCUAGGACAUUUAUUAACATT against Casc3 -0.275
GCACACUUACGUUCACAUATT against Timm8a2 0.723
GGUAAUUGAGCUGAGUUCUTT against Rad54l2 0.479
CGGGAAGCAUCACUAUUUCTT against Nabp1 -0.822
GGAACCACUACAAAAGUUGTT against Pmel 0.166
CCAAGUGGGAUUUGCCAACTT against Ifi47 -1.68
GGAUUGUUUCAGAGAUGGATT against Stx6 0.126
CCAAAGAUUGCUUUCACAATT against Ube2d1 -0.532
CCAACAUGAAGCUUGUCCATT against Zpr1 -1.51
CCUUUAAUAAAGGUCUAGGTT against Desi1 0.354
GGGCUGUUCCAAAACACAGTT against Flad1 1.1
GGAGUCUCAGAACAGCACATT against Spg11 0.0597
GGACUUAAAAGUCACAUCATT against Tcf4 0.387
GGAAGAUUCAUGUUCCUAUTT against Mug1 0.423
GCUUGAAUGUUAAAGCCAATT against Fbxo34 0.0889
CGAUGAUAACGAAAUGAACTT against Scn3a -0.027
GGCCUUUAACAAGUUUCUATT against Csn1s1 0.283
GCCACAGGUAUGAGAAUGATT against Abra 0.914
GCGGAUGAAUACUUACUUATT against Fbxl12os 0.13
GGUUUAUGACAAACUGAAATT against Enpp4 -0.0826
GCCCUUCAAAAGGAGCAGUTT against Cap1 1.86
GGUAAAGAAAGCCUUUUUUTT against Prkag1 0.701
GGAAACAAUAACAACUUCCTT against Eppin 1.03
GGAAAAACUAUGUUGCUGATT against Slc26a10 -0.637
GGAGAUGGUUAACCUCAGATT against Lurap1l 0.674
GGGCUUUGUGCCCAACAUGTT against Rtcb 0.278
GGACAGAUGACUUCAAUACTT against Gm4736 0.422
GGACAAUUCCAUGCUUCCCTT against Il24 -0.00641
GGAUCUUAGAGAUGAUUACTT against Slc35g1 1.18
CCAGUAUGAGAACUACGAUTT against Loxl1 -0.345
GGAUCACGUUUCAAACAUCTT against Mtmr12 0.296
GGCUGAUCGACUUAGAGCUTT against Pkp3 0.624
GGCAAGUUAAUGGAUCAAATT against Tspan2 -0.891
CCUCGGCGAGAUAUUGUGUTT against Gal3st1 -0.522
GCUACGAAUACAUGCGACATT against Plekhj1 -0.906
CCCAUUUAUUCUCCUUUAUTT against Smurf1 -0.0979
GGUGGGAUUGUUCUUAAAUTT against Drap1 -0.0667
GGAACAAAGAAAUGCAAUATT against Ncr1 -1.18
CGUACAACAACUAACUUUATT against Ube2v2 0.583
AUCCCAAAGUUCGUUGUUATT against Olfr307 -0.48
GGGAAAGGGCAUUUUCUUUTT against Znrf1 -0.627
GGGCACACGUACCAACUAUTT against Mib2 -0.458
GCCUUACAUGAGCCCAUGUTT against Olfr550 -1.96
GGAUCCGUUUUGGUGGAAUTT against Enpp4 0.255
CCUGGUGAAGCUAAUCACCTT against Adamts13 -1
GCCUGACUUUAUGGUAAAATT against Mnat1 -0.127

Pulled one by one from the list above, four records:
z-score, inactive:
GCACAAGAUGUUCACACUATT against Siva1 0.255
GGUUUAUGACAAACUGAAATT against Enpp4 -0.0826
GGCUCAGGUGUUCAAGAUATT against Cd109 -1.66
GGGCAGAAAACAACUGGAATT against Pappa -1.1
